Data from patent publication US20090208473A1 (RUTGERS THE STATE UNIVERSITY OF NEW JERSEY, published 2009).
Where a chain is given by its changes, count along the chain named. Names may count otherwise. Results are given in words; binding and its absence hold for the method and conditions named. Some results given as binding are weak or reduced against the parent protein; the word gives no strength. For some assays here: Sequences can lack the tags named with a protein. Each block holds one binder with its values, some of them ahead of it.

Experiments:
[1] = molecular target: GFP-MG53 fusion protein (mouse) (UniProt Q1XH17); assay: oligomerization; Western blot without DTT of GFP-MG53 constructs from C2C12 cells
[2] = molecular target: GFP-MG53 C53, 55, 56A mutant (mouse) (UniProt Q1XH17); assay: as above
[3] = molecular target: GFP-MG53 C29L mutant (mouse) (UniProt Q1XH17); assay: as above
[4] = molecular target: GFP-MG53 C105S mutant (mouse) (UniProt Q1XH17); assay: as above
[5] = molecular target: GFP-MG53 C86A mutant (mouse) (UniProt Q1XH17); assay: as above
[6] = molecular target: GFP-MG53 C29L/C105S double mutant (mouse) (UniProt Q1XH17); assay: as above
[7] = molecular target: GFP-MG53 H31A mutant (mouse) (UniProt Q1XH17); assay: as above
[8] = molecular target: MG53 C313A mutant (mouse) (UniProt Q1XH17); assay: oligomerization under oxidized conditions (FIG. 16)

binding [1]: binds
B1: GFP-MG53 fusion protein (protein, mouse, UniProt Q1XH17 1-477, looked up, not shown: large carriers)
chain: MSAAPGLLRQELSCPLCLQLFDAPVTAECGHSFCRACLIRVAGEPAADGTVACPCCQAPTRPQALSTNLQLSRLVEGLAQVPQGHCEEHLDPLSIYCEQDRTLVCGVCASLGSHRGHRLLPAAEAQARLKTQLPQQKMQLQEACMRKEKTVAVLEHQLVEVEETVRQFRGAVGEQLGKMRMFLAALESSLDREAERVRGDAGVALRRELSSLNSYLEQLRQMEKVLEEVADKPQTEFLMKFCLVTSRLQKILSESPPPARLDIQLPVISDDFKFQVWKKMFRALMPALEELTFDPSSAHPSLVVSSSGRRVECSDQKAPPAGEDTRQFDKAVAVVAQQLLSQGEHYWEVEVGDKPRWALGVMAADASRRGRLHAVPSQGLWLLGLRDGKILEAHVEAKEPRALRTPERPPARIGLYLSFADGVLAFYDASNPDVLTPIFSFHERLPGPVYPIFDVCWHDKGKNAQPLLLVGPEQEQA

binding [2]: binds
B2: GFP-MG53 C53, 55, 56A mutant (protein, mouse, UniProt Q1XH17 1-477, looked up, not shown: large carriers)
chain: B1 chain with C53A, C55A, C56A

binding [3]: binds
B3: GFP-MG53 C29L mutant (protein, mouse, UniProt Q1XH17 1-477, looked up, not shown: large carriers)
chain: B1 chain with C29L

binding [4]: binds
B4: GFP-MG53 C105S mutant (protein, mouse, UniProt Q1XH17 1-477, looked up, not shown: large carriers)
chain: B1 chain with C105S

binding [5]: binds
B5: GFP-MG53 C86A mutant (protein, mouse, UniProt Q1XH17 1-477, looked up, not shown: large carriers)
chain: B1 chain with C86A

binding [6]: binds
B6: GFP-MG53 C29L/C105S double mutant (protein, mouse, UniProt Q1XH17 1-477, looked up, not shown: large carriers)
chain: B1 chain with C29L, C105S

binding [7]: binds
B7: GFP-MG53 H31A mutant (protein, mouse, UniProt Q1XH17 1-477, looked up, not shown: large carriers)
chain: B1 chain with H31A

binding [8]: binds
B8: MG53 C313A mutant (protein, mouse, UniProt Q1XH17 1-477, looked up, not shown: large carriers)
chain: B1 chain with C313A
